Results are given in words; binding and its absence hold for the method and conditions named. Some binding calls cover weakened binding; strength is not graded here. Sequences can lack the tags named with a protein.
Target: T1, f-5A chimera (catalytic module of T. fusca family-5 endoglucanase Cel5A fused to a dockerin from Ruminococcus flavefaciens)
T1 sequence: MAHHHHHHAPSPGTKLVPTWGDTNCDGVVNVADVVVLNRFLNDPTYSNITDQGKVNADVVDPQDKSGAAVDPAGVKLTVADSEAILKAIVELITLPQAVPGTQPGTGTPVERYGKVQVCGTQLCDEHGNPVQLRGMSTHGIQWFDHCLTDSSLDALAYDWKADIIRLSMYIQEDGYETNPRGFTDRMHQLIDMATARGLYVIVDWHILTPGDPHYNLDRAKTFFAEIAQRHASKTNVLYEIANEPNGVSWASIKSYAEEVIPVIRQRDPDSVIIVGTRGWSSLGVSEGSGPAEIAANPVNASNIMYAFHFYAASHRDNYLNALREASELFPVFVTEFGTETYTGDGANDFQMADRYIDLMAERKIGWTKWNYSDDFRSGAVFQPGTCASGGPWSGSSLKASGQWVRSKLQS
Test: affinity-based ELISA

B1: Scaf-F single-cohesin scaffoldin (CBM with R. flavefaciens cohesin) (protein)
chain: MANTPVSGNLKVEFYNSNPSDTTNSINPQFKVTNTGSSAIDLSKLTLRYYYTVDGQKDQTFWCDHAAIIGSNGSYNGITSNVKGTFVKMSSSTNNADTYLEISFTGGTLEPGAHVQIQGRFAKNDWSNYTQSNDYSFKSASQFVEWDQVTAYLNGVLVWGKEPGGSVVPSTQPVTTPPATTKPPATTIPPSDDPNAGSANRTAADGTVEWLIPTVTAAPGQTVTMPVVVKSSSLAVAGAQFKIQAATGVRYSKTDGDAYGSGIVYNNSKYAFGQGAGRGIVAADDSVVLTLAYTVPADCAEGTYDVKWSDAFVSDTDGQNITSKVTLTDGAIIVKKDN
B1 was tested, and the binding was “binds”.

Reference: patent publication US20120301930A1
